Experimental data reported in the supplement of paper PMC4604168 (melanoma cell lines).
The other results are listed elsewhere or left out. Many values rest on one well or one pass, so single values are uncertain.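 Imaging used 1,536-well plates; nuclei positive for cleaved PARP by antibody were divided by total DNA-stained nuclei to yield the apoptosis fraction. Doses for screening kept most cells viable, and cell lines differ markedly in resting and induced cleaved-PARP levels.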

test system: WM3526; assay: cleaved PARP positive nuclei fraction relative to DMSO control; melanoma cells; higher = more apoptosis; details: library dose: low library concentration; 72 h

Structure (SMILES) | cleaved PARP positive nuclei fraction
Cn1c(Nc2ccc(C(F)(F)F)cc2)nc2cc(Oc3ccnc(-c4ncc(C(F)(F)F)[nH]4)c3)ccc21 + Nc1cccc2c1CN(C1CCC(=O)NC1=O)C2=O [lenalidomide] (first compound 0.08 µM, partner dose 1 µM) | 327%
Clc1ccc(Nc2nnc(Cc3ccncc3)c3ccccc23)cc1 [vatalanib] + Cc1nc(Nc2ncc(C(=O)Nc3c(C)cccc3Cl)s2)cc(N2CCN(CCO)CC2)n1 [dasatanib] (first compound 2 µM, partner dose 0.004 µM) | 82.6%
OCc1c[nH]c2ccccc12 [Indole-3-carbinol] + O=S(=O)(c1ccccc1)N(CC(F)(F)F)c1ccc(C(O)(C(F)(F)F)C(F)(F)F)cc1 [T0901317] (first compound 0.8 µM, partner dose 1.4 µM) | 152%
C=CCNC1=C2C[C@@H](C)C[C@H](OC)[C@H](O)[C@@H](C)/C=C(\C)[C@H](OC(N)=O)[C@@H](OC)/C=C\C=C(/C)C(=O)NC(=CC1=O)C2=O [Tanespimycin] + Nc1cccc2c1CN(C1CCC(=O)NC1=O)C2=O [lenalidomide] (first compound 0.002 µM, partner dose 1 µM) | 97.5%
C=CCNC1=C2C[C@@H](C)C[C@H](OC)[C@H](O)[C@@H](C)/C=C(\C)[C@H](OC(N)=O)[C@@H](OC)/C=C\C=C(/C)C(=O)NC(=CC1=O)C2=O [Tanespimycin] + OCc1c[nH]c2ccccc12 [Indole-3-carbinol] (first compound 0.002 µM, partner dose 0.8 µM) | 274%
